# The full ranking holds about 68,000 compounds; the median of “% viability” is about 1.1, and the lowest 2% start at about 0.96. The list shows a part of the results, in another mix than the full data. The numbers are fractions of the control, whatever unit the source prints.
# System: P. falciparum (NF54) stage V gametocytes
# Details: 72 h, 2 µM
row,Compound,% viability
1,CCS(=O)(=O)N1[CH]Cc2ccc(NC(=O)Nc3cccc(C#N)c3)cc21 [DDD01025929],1.253
